Test system: pentazole-induced seizures in diazepam-treated NMRI mice
Assay: Antagonism of benzodiazepine (diazepam) action on pentazole-induced seizures
Format: in vivo
Settings: 5 mg/kg i.p. 30 minutes before pentazole 150 mg/kg s.c.

SMILES: CN1C(=O)CN=C(c2ccccc2)c2cc(Cl)ccc21 [Diazepam, reference compound]
- inhibition of pentazole-induced seizures: totally inhibit the seizures

Reference: patent publication US4748179A, “β-carbolin-3-carboxylic acid derivatives and their use as benzodiazepine antagonists” (Schering Aktiengesellschaft, priority 1983, dated 1988)
